According to doi:10.1101/2024.06.02.596995:
Results are given in words; binding and its absence hold for the method and conditions named. Binding seen in cells or lysates may run through a third protein. Some binding calls cover weakened binding; strength is not graded here. Sequences can lack the tags named with a protein.

Molecular target: T1, MOV10L1-Flag (mouse) (UniProt Q99MV5)
T1 sequence: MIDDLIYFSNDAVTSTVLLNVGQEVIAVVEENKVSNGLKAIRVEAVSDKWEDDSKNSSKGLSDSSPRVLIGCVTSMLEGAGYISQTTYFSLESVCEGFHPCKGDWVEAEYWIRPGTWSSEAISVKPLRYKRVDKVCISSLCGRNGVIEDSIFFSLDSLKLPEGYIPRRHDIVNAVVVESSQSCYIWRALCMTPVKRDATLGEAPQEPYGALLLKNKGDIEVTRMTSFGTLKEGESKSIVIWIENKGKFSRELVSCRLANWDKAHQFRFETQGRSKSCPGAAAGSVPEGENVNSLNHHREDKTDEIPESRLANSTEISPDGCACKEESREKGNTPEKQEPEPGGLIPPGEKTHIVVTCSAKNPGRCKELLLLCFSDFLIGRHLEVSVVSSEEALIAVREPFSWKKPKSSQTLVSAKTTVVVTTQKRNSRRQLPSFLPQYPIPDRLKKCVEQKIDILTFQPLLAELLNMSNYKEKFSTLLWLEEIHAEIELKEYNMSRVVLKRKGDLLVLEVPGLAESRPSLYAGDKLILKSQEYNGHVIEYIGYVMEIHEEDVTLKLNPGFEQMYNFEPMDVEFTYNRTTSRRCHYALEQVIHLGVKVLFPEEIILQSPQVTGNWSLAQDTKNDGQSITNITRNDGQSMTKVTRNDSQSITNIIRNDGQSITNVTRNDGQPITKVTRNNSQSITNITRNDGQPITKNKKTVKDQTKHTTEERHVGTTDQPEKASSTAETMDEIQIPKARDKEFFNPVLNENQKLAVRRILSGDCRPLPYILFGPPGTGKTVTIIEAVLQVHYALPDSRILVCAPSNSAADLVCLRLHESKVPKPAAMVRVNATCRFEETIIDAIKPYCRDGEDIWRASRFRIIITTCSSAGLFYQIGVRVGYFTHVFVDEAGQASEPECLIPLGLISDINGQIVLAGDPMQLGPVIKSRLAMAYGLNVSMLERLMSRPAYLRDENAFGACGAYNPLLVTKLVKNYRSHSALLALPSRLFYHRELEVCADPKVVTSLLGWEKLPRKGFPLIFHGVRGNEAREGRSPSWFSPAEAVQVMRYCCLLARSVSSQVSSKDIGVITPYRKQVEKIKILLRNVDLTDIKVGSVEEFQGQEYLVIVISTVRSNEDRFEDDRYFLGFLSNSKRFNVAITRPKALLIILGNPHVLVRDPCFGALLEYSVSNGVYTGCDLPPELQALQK
Test: co-IP

B1: Myc-ASZ1 (protein, UniProt Q8VD46 1-475)
chain: MAAGTLRGLAVAGGGESSDSEDDGWDIGYLDRSSQKLKRSLPVEEKNETFKKALTTGDISLVKELLDSGINVDSSFRYGWTPLMYAASVANAELVRFLLDRGANASFDKDKLTILISACSARGSEEQVLKCVELLLSRNADPNTACRRLMTPIMYAARDGHTQVVALLVAHGAEVNAQDENGYTALTWAARQGHKNVILKLLELGANKMLQTKDGRTPSEIAKRNKHLEIFNFLSLTLNPLEGKLQQLTKEETICKLLATDSDKEKDHIFSPYTAFGDLEIFLHGLGLEHMTDSLKEKDITLRHLLTMKKDELTKNGIASKDQQKILAALKELEVEEINFGKLPEVTKLEISGDEFLNFLLKLNKQCGHLITAVQNIITELPVNSHKIVLEWASPRNFTSVCEELVSNVEDLNEEVCRLKELIQKMQNERENDPTHIPLVEEVSTWKTRILKRSAVTVCGFGLLLFIGKLTLQRK
**Q.** For B1, which binding is on record?
**A.** binds
